# Data: paper PMC4777437
# Protein sequences, listed by entry. Tags and fused reporters are not part of them.
# UniProt P19525: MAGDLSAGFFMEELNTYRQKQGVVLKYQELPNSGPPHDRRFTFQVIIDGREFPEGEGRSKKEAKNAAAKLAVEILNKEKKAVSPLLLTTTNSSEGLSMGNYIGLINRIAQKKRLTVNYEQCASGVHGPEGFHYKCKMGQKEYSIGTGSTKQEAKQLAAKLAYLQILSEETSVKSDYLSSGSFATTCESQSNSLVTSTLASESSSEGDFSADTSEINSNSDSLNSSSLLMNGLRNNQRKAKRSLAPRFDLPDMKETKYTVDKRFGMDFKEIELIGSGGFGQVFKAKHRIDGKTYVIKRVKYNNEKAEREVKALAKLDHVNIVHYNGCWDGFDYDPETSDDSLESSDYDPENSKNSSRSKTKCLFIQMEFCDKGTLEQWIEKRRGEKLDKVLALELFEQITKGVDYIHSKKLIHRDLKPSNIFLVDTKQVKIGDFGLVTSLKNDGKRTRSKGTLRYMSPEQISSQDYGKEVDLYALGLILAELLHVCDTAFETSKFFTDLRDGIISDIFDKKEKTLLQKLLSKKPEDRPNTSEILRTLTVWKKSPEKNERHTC
# Results are given in words; binding and its absence hold for the method and conditions named. Binding seen in cells or lysates may run through a third protein. Some entries that bind do so weakly or less than the wild type.
# B1: MDA5, endogenous (protein, UniProt Q9BYX4 1-1025)
# chain: MSNGYSTDENFRYLISCFRARVKMYIQVEPVLDYLTFLPAEVKEQIQRTVATSGNMQAVELLLSTLEKGVWHLGWTREFVEALRRTGSPLAARYMNPELTDLPSPSFENAHDEYLQLLNLLQPTLVDKLLVRDVLDKCMEEELLTIEDRNRIAAAENNGNESGVRELLKRIVQKENWFSAFLNVLRQTGNNELVQELTGSDCSESNAEIENLSQVDGPQVEEQLLSTTVQPNLEKEVWGMENNSSESSFADSSVVSESDTSLAEGSVSCLDESLGHNSNMGSDSGTMGSDSDEENVAARASPEPELQLRPYQMEVAQPALEGKNIIICLPTGSGKTRVAVYIAKDHLDKKKKASEPGKVIVLVNKVLLVEQLFRKEFQPFLKKWYRVIGLSGDTQLKISFPEVVKSCDIIISTAQILENSLLNLENGEDAGVQLSDFSLIIIDECHHTNKEAVYNNIMRHYLMQKLKNNRLKKENKPVIPLPQILGLTASPGVGGATKQAKAEEHILKLCANLDAFTIKTVKENLDQLKNQIQEPCKKFAIADATREDPFKEKLLEIMTRIQTYCQMSPMSDFGTQPYEQWAIQMEKKAAKEGNRKERVCAEHLRKYNEALQINDTIRMIDAYTHLETFYNEEKDKKFAVIEDDSDEGGDDEYCDGDEDEDDLKKPLKLDETDRFLMTLFFENNKMLKRLAENPEYENEKLTKLRNTIMEQYTRTEESARGIIFTKTRQSAYALSQWITENEKFAEVGVKAHHLIGAGHSSEFKPMTQNEQKEVISKFRTGKINLLIATTVAEEGLDIKECNIVIRYGLVTNEIAMVQARGRARADESTYVLVAHSGSGVIEHETVNDFREKMMYKAIHCVQNMKPEEYAHKILELQMQSIMEKKMKTKRNIAKHYKNNPSLITFLCKNCSVLACSGEDIHVIEKMHHVNMTPEFKELYIVRENKALQKKCADYQINGEIICKCGQAWGTMMVHKGLDLPCLKIRNFVVVFKNNSTKKQYKKWVELPITFPNLDYSECCLFSDED
# Target: protein kinase R (PKR), endogenous (human (endogenous in HEK293T and A549)) (UniProt P19525)
binder,measurement,value
B1,binding,binds
